# Record: PubChem BioAssay AID1259308 (NCATS, 2017)
# Purpose: 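Candidate targets for better recombinant protein yield in mammalian cells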 (primary screen)
# Cells: human HEK293 embryonic kidney cells stably expressing firefly luciferase (HEK-CMV-Luc2-Hygro)
# Knock-down reagent: single siRNA against human genes, 0.8 pmol siRNA per well
# Time to read-out: 72 h
# Read-out: 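Luciferase light (ONE-Glo) measured on one replicate plate set and viability (CellTiter-Glo) on the other, scaled to a negative control siRNA, with robust z-scores and luciferase per cell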
# Scale: total luciferase, z-score: higher = more reporter protein produced
# Rule for the call: 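Active when the median/MAD z-score for overall luciferase is greater than 3; a gene was taken forward for validation with new siRNAs if at least two of its three siRNAs passed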
# Meaning of the calls: active = raised luciferase; inactive = no rise
# Here is an unselected part of about 59,000 reagents. About 1,510 of all reagents (2.6%) were called active. 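Calls use total luciferase alone and ignore viability, so some active siRNAs may act by altering cell number.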 Unmarked entries are inactive. The numbers tell different reagents against one gene apart. Further read-outs or replicates are left out here.
Gene,reagent,"total luciferase, z-score"
ARMH3,1,-0.988
ARMH3,2,0.19
ARMH3,3,0.644
DDN,1,1.23
DDN,2,-1
DDN,3,-0.221
CPEB2,1,-0.54
CPEB2,2,-1.35
CPEB2,3,1.52
SELENOO,1,4.72 (active)
SELENOO,2,0.6
SELENOO,3,-0.617
CAMK1D,1,2.61
CAMK1D,2,-0.165
CAMK1D,3,-1.11
EPPIN,1,0.802
EPPIN,2,0.0351
EPPIN,3,-1.08
SLC31A2,1,-1.34
SLC31A2,2,0.433
SLC31A2,3,0.404
NCS1,1,-0.0732
NCS1,2,0.342
NCS1,3,-2.28
GADL1,1,1.13
GADL1,2,-3.02
GADL1,3,-0.303
TMC5,1,1.25
TMC5,2,0.604
TMC5,3,1.54
OR13G1,1,-0.0835
OR13G1,2,0.137
OR13G1,3,-0.829
CFH,1,1.72
CFH,2,-1.05
CFH,3,-0.537
LORICRIN,1,2.92
LORICRIN,2,-0.198
LORICRIN,3,-0.773
NRXN1-DT,1,5.32 (active)
NRXN1-DT,2,-0.149
NRXN1-DT,3,0.177
SAMTOR,1,1.14
SAMTOR,2,0.217
SAMTOR,3,2.46
HLA-B,1,0.257
HLA-B,2,1.6
HLA-B,3,-0.206
HLA-B,4,-0.907
HLA-B,5,0.529
HLA-B,6,1.5
USP6,1,0.448
USP6,2,-0.95
USP6,3,0.106
RBP7,1,-0.315
RBP7,2,0.889
RBP7,3,-1.81
SNRPN,1,0.0856
SNRPN,2,0.26
SNRPN,3,-0.0538
SNRPN,4,-0.103
SNRPN,5,-0.456
SNRPN,6,-0.652
SNRPN,7,0.944
SNRPN,8,0.385
SNRPN,9,-0.148
CTSZ,1,1.08
CTSZ,2,-0.0693
CTSZ,3,0.444
SLC19A2,1,-1.3
SLC19A2,2,0.289
SLC19A2,3,1.25
KRTAP3-2,1,0.0341
KRTAP3-2,2,2.31
KRTAP3-2,3,-0.484

Active calls, of those listed so far:
Gene,reagent,"total luciferase, z-score"
SELENOO,1,4.72 (active)
NRXN1-DT,1,5.32 (active)
